Consider 2 molecules from paper PMC10834429, “HRDE-2 drives small RNA specificity for the nuclear Argonaute protein HRDE-1” (Nature Communications, 2024).

Experiment [1] deals with T1, HRDE-2::2xTy1::GFP (C. elegans) (UniProt Q22058).
T1 sequence: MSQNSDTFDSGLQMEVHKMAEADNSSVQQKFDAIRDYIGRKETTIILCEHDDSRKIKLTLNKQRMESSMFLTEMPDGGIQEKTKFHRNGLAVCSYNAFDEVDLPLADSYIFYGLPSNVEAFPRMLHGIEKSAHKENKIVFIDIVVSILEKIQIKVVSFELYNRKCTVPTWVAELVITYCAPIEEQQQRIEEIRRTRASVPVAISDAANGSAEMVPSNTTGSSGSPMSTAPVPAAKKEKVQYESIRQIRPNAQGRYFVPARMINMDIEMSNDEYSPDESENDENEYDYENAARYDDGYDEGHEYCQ
Nature of the experiment: co-IP; lysate of ~3500 synchronized adult animals; IP of SIMR-1 probing for HRDE-2 and vice versa; IP buffer 50 mM Tris-Cl pH 7.5, 100 mM KCl, 2.5 mM MgCl2, 0.1% Nonidet P40 substitute; 4 °C, 1 h; western blot. For orientation: A western blot detects proteins with antibodies after separation by electrophoresis.

For experiment [2], the target named is T2, SIMR-1::mCherry::2xHA (C. elegans) (UniProt O01477).
T2 sequence: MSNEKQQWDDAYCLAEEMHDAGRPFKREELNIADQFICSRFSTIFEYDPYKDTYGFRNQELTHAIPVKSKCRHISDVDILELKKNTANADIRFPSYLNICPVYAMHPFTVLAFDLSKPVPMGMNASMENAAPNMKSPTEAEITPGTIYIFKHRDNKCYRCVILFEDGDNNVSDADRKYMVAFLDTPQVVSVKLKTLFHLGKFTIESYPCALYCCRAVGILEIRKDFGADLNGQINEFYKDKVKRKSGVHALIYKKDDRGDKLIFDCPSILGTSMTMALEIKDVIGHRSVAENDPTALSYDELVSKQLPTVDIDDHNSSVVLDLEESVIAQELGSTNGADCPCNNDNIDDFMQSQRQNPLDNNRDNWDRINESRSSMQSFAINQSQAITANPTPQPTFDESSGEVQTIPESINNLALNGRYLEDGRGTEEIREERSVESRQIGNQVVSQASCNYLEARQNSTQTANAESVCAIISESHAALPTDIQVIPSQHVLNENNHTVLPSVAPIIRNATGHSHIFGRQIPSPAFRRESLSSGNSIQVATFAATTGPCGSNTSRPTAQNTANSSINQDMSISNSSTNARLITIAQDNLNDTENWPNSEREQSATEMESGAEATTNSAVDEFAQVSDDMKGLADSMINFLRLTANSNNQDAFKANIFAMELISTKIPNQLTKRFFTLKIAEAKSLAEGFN
Described as above.

For another experiment, the target named is T3, GFP::3xFLAG::HRDE-1 (C. elegans, UniProt Q09249 1-1032).
T3 construct: HRDE-1/WAGO-9, germline nuclear Argonaute, C. elegans, tagged in the worm strain; Tag ends are read from the strain notation GFP::3xFLAG::HRDE-1; also called HRDE-1/WAGO-9; wild-type HRDE-1; source: C. elegans strain hrde-1(tor125[GFP::3xFLAG::hrde-1]), adult animals, in lysate; not shown: GFP, N-terminal, kept; 3xFLAG, N-terminal, kept
T3 sequence (looked up): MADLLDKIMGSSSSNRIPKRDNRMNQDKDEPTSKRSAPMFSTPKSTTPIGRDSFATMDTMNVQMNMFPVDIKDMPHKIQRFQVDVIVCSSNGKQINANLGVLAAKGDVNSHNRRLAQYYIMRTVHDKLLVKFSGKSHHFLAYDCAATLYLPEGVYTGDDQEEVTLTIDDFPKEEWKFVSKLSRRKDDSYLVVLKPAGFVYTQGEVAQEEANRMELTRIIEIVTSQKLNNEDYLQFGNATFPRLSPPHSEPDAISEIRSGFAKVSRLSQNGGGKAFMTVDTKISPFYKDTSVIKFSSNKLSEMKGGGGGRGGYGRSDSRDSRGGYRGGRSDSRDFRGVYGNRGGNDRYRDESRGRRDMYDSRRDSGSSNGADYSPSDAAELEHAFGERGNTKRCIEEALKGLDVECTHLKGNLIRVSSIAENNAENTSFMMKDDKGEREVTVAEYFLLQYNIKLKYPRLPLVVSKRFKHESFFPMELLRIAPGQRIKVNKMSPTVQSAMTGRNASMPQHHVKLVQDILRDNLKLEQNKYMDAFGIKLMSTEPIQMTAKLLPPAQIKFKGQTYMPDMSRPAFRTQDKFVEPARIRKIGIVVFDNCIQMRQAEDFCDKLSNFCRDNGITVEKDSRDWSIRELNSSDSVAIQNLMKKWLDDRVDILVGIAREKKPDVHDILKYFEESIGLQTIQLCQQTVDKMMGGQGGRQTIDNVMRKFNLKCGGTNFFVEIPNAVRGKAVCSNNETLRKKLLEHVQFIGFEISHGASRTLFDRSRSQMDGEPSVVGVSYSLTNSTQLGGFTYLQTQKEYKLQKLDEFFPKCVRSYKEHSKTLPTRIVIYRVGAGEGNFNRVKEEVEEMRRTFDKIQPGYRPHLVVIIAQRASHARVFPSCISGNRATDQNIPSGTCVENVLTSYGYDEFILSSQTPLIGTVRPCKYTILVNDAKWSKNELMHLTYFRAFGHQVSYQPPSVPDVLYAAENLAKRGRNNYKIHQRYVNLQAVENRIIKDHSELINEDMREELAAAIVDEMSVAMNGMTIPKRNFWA
The experiment can be described thus: co-IP; lysate of adult animals; anti-FLAG beads precipitate GFP::3xFLAG::HRDE-1, HRDE-2::2xTy1::GFP detected with anti-Ty1; wild-type, mut-2 mutant and hrde-1(HK-AA) backgrounds; band intensities by ImageJ normalized to HRDE-1 immunoprecipitated and to wild-type.

These are yes or no findings as the source states them, for the method shown. Binding seen in cells or lysates may run through a third protein. Some binding calls cover weakened binding; strength is not graded here. Sequences can lack the tags named with a protein.

B1: SIMR-1::mCherry::2xHA (protein, UniProt O01477 1-691)
chain: T2 sequence
For the molecule B1, the binding result in experiment [1] is reported as “no binding”.

B2: HRDE-2::2xTy1::GFP (natural protein, C. elegans, UniProt Q22058 1-305, looked up)
chain: T1 sequence
notes: HRDE-2 (HRDE-2/ENRI-3), C. elegans, tagged in the worm strain; Tag ends are read from the strain notation HRDE-2::2xTy1::GFP; also called HRDE-2/ENRI-3; source: C. elegans strain hrde-2/enri-3(tag1660[hrde-2/enri-3::2xTy1::GFP]), adult animals, in lysate; not shown: 2xTy1, C-terminal, kept; GFP, C-terminal, kept
Take B2: the values for the binding result (in experiment [2]; with GFP::3xFLAG::HRDE-1) were “no binding” and “binds”, respectively.
